Data: article PMC8277862
Results are given in words; binding and its absence hold for the method and conditions named. Binding seen in cells or lysates may run through a third protein. Some binding calls cover weakened binding; strength is not graded here.

Biological target: T1, Mesh (D. melanogaster (endogenous in midgut of line RAL-399)) (UniProt Q0KHY3)
T1 sequence: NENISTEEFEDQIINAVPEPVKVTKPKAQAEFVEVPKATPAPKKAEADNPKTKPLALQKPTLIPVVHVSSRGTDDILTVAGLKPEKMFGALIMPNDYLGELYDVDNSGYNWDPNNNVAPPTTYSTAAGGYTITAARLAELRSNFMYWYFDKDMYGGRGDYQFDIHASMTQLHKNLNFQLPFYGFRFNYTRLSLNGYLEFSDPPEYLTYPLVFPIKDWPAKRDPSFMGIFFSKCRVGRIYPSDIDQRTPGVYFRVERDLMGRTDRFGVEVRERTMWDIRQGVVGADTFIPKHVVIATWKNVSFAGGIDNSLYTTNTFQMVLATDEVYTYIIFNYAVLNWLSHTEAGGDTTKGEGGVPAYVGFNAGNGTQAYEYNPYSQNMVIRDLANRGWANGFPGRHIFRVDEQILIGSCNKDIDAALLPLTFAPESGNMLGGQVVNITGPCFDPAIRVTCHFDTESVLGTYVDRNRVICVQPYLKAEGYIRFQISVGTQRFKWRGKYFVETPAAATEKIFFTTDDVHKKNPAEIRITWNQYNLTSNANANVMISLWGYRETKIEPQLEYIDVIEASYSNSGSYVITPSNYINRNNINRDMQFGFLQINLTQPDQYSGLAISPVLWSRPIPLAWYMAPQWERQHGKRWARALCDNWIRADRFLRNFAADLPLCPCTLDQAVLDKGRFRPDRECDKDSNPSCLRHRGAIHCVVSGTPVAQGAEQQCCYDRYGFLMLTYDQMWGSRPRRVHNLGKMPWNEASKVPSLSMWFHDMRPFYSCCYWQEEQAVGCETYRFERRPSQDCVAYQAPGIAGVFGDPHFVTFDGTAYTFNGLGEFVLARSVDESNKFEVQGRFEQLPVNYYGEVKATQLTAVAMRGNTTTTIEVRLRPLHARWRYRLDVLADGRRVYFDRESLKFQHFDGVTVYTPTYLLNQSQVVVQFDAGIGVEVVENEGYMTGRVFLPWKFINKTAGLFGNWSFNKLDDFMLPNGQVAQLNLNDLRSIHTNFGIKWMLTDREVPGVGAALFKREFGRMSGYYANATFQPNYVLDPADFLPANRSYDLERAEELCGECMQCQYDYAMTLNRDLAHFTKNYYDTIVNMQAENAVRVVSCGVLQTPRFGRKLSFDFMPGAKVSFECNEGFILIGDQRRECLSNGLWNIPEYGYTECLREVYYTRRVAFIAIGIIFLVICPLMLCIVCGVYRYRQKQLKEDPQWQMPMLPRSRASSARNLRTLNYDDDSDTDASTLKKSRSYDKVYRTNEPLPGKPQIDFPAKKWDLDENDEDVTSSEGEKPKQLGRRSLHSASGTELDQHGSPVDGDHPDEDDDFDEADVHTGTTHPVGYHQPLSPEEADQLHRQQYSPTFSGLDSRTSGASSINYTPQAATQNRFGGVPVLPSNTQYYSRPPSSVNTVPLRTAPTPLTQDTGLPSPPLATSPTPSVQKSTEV
Test: co-IP; antibody against Mesh (1:100) and A/G beads, Pierce Crosslink Magnetic IP/Co-IP kit, midgut lysate of line RAL-399 in IP lysis buffer, overnight at 4 °C, five washes; Ssk and Ssk-FB4 in the precipitate quantified by in-gel digestion and PRM-MS

binding: binds
B1: Ssk (Snakeskin) (protein, UniProt Q9VW87 1-162)
chain: MVSVETVGSIFIKALKLIINLVIIFLYRWGDGGEFLGIGGTWNLNEEKSADAEIVASGVMVGFLIYTGCHTIAFAFGTTKHKGELCDTIMNVVGCIMWIAVGGVALHYWKGYMSDEGFLYVNSERQVGIAMGSLCVIEGALYLLDTVLACIHYSKGDTDYTQ
